Measurements taken from patent US8912146B2 (University of Maryland, Baltimore, priority 2008, dated 2014).

Test: general procedure: Fmoc solid-phase peptide synthesis; 2ClTrt resin (alanyl 2-chlorotrityl resin); Rink Amide resin for 29; HATU/HOAt/DIPEA; BEP/HOAt/DIPEA for glycosylated Thr/Ser
Details: whole synthesis, HPLC trace analysis at 227 nm

Row | Substance | final HPLC purity [%]
1 | Galβ1-3GalNAcα-O-TVPAAVV | >99
2 | Galβ1-3GalNAcα-O-TVPAAVVV | >98
3 | Galβ1-3GalNAcα-O-TVPAAVVVA | >99
4 | Galβ1-3GalNAcα-O-TV-Pip-AAVVVA | >99
